# Measurements: PubChem BioAssay AID2685 (National Center for Advancing Translational Sciences (NCATS), 2010)
# Some of the results follow. These are further read-outs of the screen, such as a control signal, another cell line or another target. No call is given for them. Most of these compounds were active or inconclusive in the main read-out, so they are no random draw. Potencies come from curve fits of mixed quality, noted in brackets.
# Experiment: qHTS Assay for Lipid Storage Modulators in Drosophila S3 Cells;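 on cell number change: cells counted by Cell Tracker Red CMTPX staining in the red channel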
# Details: BODIPY lipid droplet fluorescence, 18-24 h; for cell number change: measured here: cell count max response, cells fed with added oleic acid
# Method in brief: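 Laser-scanning cytometry quantifies lipid droplet accumulation (500–530 nm total intensity; droplet/cell object ratio) in oleic acid-fed (400 uM added) Drosophila S3 cells treated with a concentration series. 20 uM Triacsin C defined 100% inhibition.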
# [1] = measured here: cell number channel AC50, cells fed with added oleic acid
# [2] = measured here: lipid fluorescence (Fed channel) AC50, cells fed with added oleic acid
Structure (SMILES),AC50 [1],cell number change,AC50 [2]
c1coc(-c2nnc3n2C2(CCCC2)Cc2ccccc2-3)c1,"1.64 µM [rising, partial curve]",–,–
CCCC(=O)Nc1ccccc1-c1nnc(SCC)[nH]c1=O,–,-23.4%,"29.1 µM [falling, single point]"
c1ccc(-c2csc3ncn4nnnc4c23)cc1,"0.92 µM [rising, partial curve]",–,"1.03 µM [rising, partial curve]"
COc1cc(/C=C2/SC(=S)N(CCC(=O)Nc3ccc(C(=O)O)cc3)C2=O)cc(OC)c1OC,–,18.4%,"29.1 µM [rising, single point]"
COc1cccc(OC)c1C(=O)NC(=S)Nc1ccc(N2CCOCC2)c(Cl)c1,–,22%,–
CCOc1ccc(OCc2ccc(C(=O)Nc3cccc(C)n3)o2)cc1,–,–,"0.58 µM [falling, full curve, poor fit]"
CC(C)N1CCc2c(sc(NC(=O)c3ccc(S(=O)(=O)N4CCCCC4C)cc3)c2C(N)=O)C1 (stereo not given),"1.84 µM [falling, partial curve]",-59.5%,"1.46 µM [falling, full curve]"
Cc1c(C(=O)N2CCOCC2)sc2ncnc(N3CCc4ccccc4C3)c12,–,-16.6%,"16.4 µM [rising, single point]"
COC(=O)C(C)Sc1nnc(Cc2cc(=O)[nH]c(=O)[nH]2)n1-c1ccc(Cl)cc1 (stereo not given),"23.1 µM [rising, partial curve, poor fit]",53.4%,–
CCSc1nc2n(n1)C(c1cccc(F)c1)C1=C(CCCC1=O)N2 (stereo not given),–,-1.96%,"7.31 µM [falling, single point]"
Cc1ccc(O)c(NC(=O)CCC2CCCCC2)c1,–,-33.1%,–
Clc1nc(NCc2ccco2)nc(N2CCCCC2)n1,"8.2 µM [rising, partial curve, poor fit]",40.7%,–
Brc1ccc(N=NNc2ccccc2)cc1,"25.9 µM [falling, partial curve]",-59%,"16.4 µM [falling, partial curve]"
COc1ccc(N(C(=O)c2ccco2)C(C(=O)NC2CCCC2)c2ccc(OC)c(OC)c2)cc1 (stereo not given),–,14.3%,"29.1 µM [rising, single point]"
COc1ccc(NS(=O)(=O)c2ccc3oc(SCc4ccc(F)cc4)nc3c2)cc1,–,4.75%,"0.411 µM [rising, full curve, poor fit]"
CCn1c(/C=N/n2cnnc2)nc2ccccc21,–,29.9%,"0.651 µM [falling, full curve, poor fit]"
CCC(=O)N1CC2(c3ccccc3)CN(C(=O)CC)CC(c3ccccc3)(C1)C2=O,"35.5 µM [falling, single point]",-31.5%,"35.5 µM [falling, single point]"
CC(C)c1ccc(NC2CCCN(C(=O)CCc3cn[nH]c3)C2)cc1 (stereo not given),"0.82 µM [rising, full curve, poor fit]",22.3%,–
COc1nc(-c2ccccc2)c2cc(C)ccc2n1,–,12.4%,"7.31 µM [rising, partial curve]"
CS(=O)(=O)N1CCN(C(=O)Cc2cccs2)CC1,–,-24.4%,"5.8 µM [falling, full curve, poor fit]"

# Nothing new here: 2 of the compounds above.
Structure (SMILES),AC50 [1],cell number change,AC50 [2]
c1coc(-c2nnc3n2C2(CCCC2)Cc2ccccc2-3)c1,"1.64 µM [rising, partial curve]",–,–
CCCC(=O)Nc1ccccc1-c1nnc(SCC)[nH]c1=O,–,-23.4%,"29.1 µM [falling, single point]"

# (cont.)

Structure (SMILES),AC50 [1],cell number change,AC50 [2]
Cc1ccc(NC(=O)CSCC(=O)NC2CCCCC2)cc1,–,3.05%,"0.82 µM [falling, full curve, poor fit]"
CC(C)COC(=O)n1ccc(C(=O)N2CCCCC2)n1,–,-3.6%,"16.4 µM [falling, single point]"
Cc1ccc(NC(=O)Nc2cccc(C(F)(F)F)c2)nc1,"0.92 µM [falling, full curve]",-49.1%,"0.651 µM [falling, single point]"
CCOC(=O)c1c(-c2cccs2)csc1NC(=O)C(C)(C)C,–,-49.8%,"23.1 µM [falling, single point]"
Cc1cc(NC(=O)Cn2c(=O)c3c(ncn3CC(C)C)n(Cc3ccccc3)c2=O)no1,–,-1.47%,–
O=C1CN(C(=O)CSc2nc(-c3ccc(Cl)cc3)cs2)c2ccccc2N1,"6.51 µM [rising, single point]",34.4%,"9.2 µM [rising, partial curve]"
COc1ccc(NC(=O)CN(C)C(=O)c2cnc(Cl)c(Cl)c2)cc1,–,-1.28%,–
Cc1cc(C)c2c(=O)[nH]n(C(C)C)c2n1,–,-18.6%,"2.59 µM [falling, full curve]"
CC(NC(=O)C1CCCN(C(=O)c2ccc(Cl)cc2)C1)c1cccc(C(F)(F)F)c1 (stereo not given),–,-9.64%,"2.59 µM [rising, single point]"
O=C(CSc1ccsc1[N+](=O)[O-])NCc1ccco1,–,–,"6.51 µM [falling, single point]"
COc1ccccc1NC(=O)c1cnc(SC)nc1,–,7.04%,"29.1 µM [rising, single point]"
Clc1ccc(/C=C\c2nccc3c2[nH]c2ccccc23)cc1,"20.6 µM [falling, single point]",-34.3%,"29.1 µM [falling, single point]"
Nc1c(Cl)cc(-c2cn(CCC(=O)O)c(-c3ccncc3)n2)cc1Cl,–,14.7%,–
COC(=O)c1ccc(NS(=O)(=O)c2ccc(Cl)cc2)o1,"23.1 µM [falling, single point]",-36.9%,"29.1 µM [falling, single point]"
COc1cc(OC)c(OC)cc1CNc1cc(C)ccc1OC,–,-19.9%,–
Cc1cc(-c2ccc(F)cc2)nc2cc(C(N)=O)nn12,–,11.2%,"6.51 µM [rising, single point]"
CCCCOC(=O)Nc1ccc(S(=O)(=O)Nn2cnnc2)cc1,–,7.5%,"23.1 µM [falling, single point]"
CC(C)C(=O)N1N=C2CCCCC2C1(O)C(F)(F)F (stereo not given),–,24.4%,"6.51 µM [rising, single point]"
COc1ccc(S(=O)(=O)N(CC(=O)NCC2CCCO2)C2CCCCC2)cc1OC (stereo not given),–,-5.26%,–
CN1CCCN(Cc2ccc(Cl)cc2Cl)CC1,"0.461 µM [falling, full curve, poor fit]",-11%,–

Structure (SMILES),AC50 [1],cell number change,AC50 [2]
Cc1ccc(S(=O)(=O)c2nnn3c2nc(NC2CCN(Cc4ccccc4)CC2)c2ccccc23)cc1C,"0.0291 µM [rising, partial curve]",32.3%,–
O=C(CCCn1c(=S)[nH]c2ccccc2c1=O)NCc1ccco1,–,-11.4%,–
C=CCNC(=O)[C@H]1N2C(=O)c3ccccc3C2SC1(C)C (stereo not given in full),"20.6 µM [rising, single point]",79.6%,"0.58 µM [falling, single point]"
COc1cccc(-n2cc(CNC(=O)C3CCC(=O)N(C4CC4)C3)cn2)c1 (stereo not given),–,1.15%,–
COc1ccc(Cl)cc1NC(=S)NCc1cccs1,"29.1 µM [rising, single point]",119%,"29.1 µM [rising, single point]"
CCOC(=O)N1CCN(CC(=O)NC(=O)Nc2ccc3c(c2)OCCO3)CC1,"20.6 µM [falling, partial curve]",-49.9%,"29.1 µM [falling, single point]"
O=C(NC1CCN(Cc2ccccc2)CC1)c1cccc(OC(F)F)c1,–,10.9%,"0.82 µM [rising, full curve, poor fit]"
CCOc1ccccc1NC(=O)/C(C#N)=C/c1c(C)nn(-c2ccc(F)cc2)c1Cl,–,0.235%,"20.6 µM [rising, single point]"
Cc1cc(CCCCCCCCc2cc(C)cc(=O)o2)oc(=O)c1,"10.3 µM [rising, partial curve]",52.8%,"32.6 µM [falling, partial curve, poor fit]"
CCc1ccc(NC(=S)N2CCNC(=O)C2CC(=O)OC)cc1 (stereo not given),–,1.02%,"0.651 µM [falling, full curve, poor fit]"
COC(=O)N(C)c1ccccc1C(=O)N1CCOCC1,"0.291 µM [rising, partial curve, poor fit]",17.4%,"29.1 µM [falling, single point]"
COc1ccc(NC(=O)COc2coc(CN3CCN(c4ccccc4)CC3)cc2=O)cc1,–,-0.321%,–
O=C(NCCc1c[nH]c2ccccc12)C(F)(F)F,"0.517 µM [falling, full curve, poor fit]",-20%,–
CCc1ccccc1NC(=O)Cn1ccn(-c2ccc(OC)cc2)c(=O)c1=O,–,-8.9%,"2.06 µM [rising, full curve]"
CC(C)N(Cc1nc(-c2ccc(Cl)cc2)no1)C(=O)CN(C)S(=O)(=O)c1ccc(Cl)cc1,–,1.08%,–
Cc1noc(C)c1S(=O)(=O)N1CCC(C(=O)NCCc2ccc(S(N)(=O)=O)cc2)CC1,"10.3 µM [falling, partial curve]",-46.5%,"23.1 µM [falling, partial curve]"
O=[N+]([O-])c1cccc(-c2nc(-c3ccccn3)no2)c1,–,5.44%,"14.6 µM [rising, single point]"
CCCn1c2ccc(F)cc2c2nnc(NN)nc21,–,98.1%,"20.6 µM [rising, partial curve]"
CCn1ncc([N+](=O)[O-])c1C(=O)Nc1cc(C)on1,"20.6 µM [rising, single point]",73.8%,–
CC(=O)c1c(C)c2c(n1CCN(C)C)CCCC2,"29.1 µM [rising, single point]",42.9%,"0.651 µM [falling, single point]"

# Copied from the list:
# Under cell number change, COc1ccc(NC(=O)COc2coc(CN3CCN(c4ccccc4)CC3)cc2=O)cc1 shows -0.321%
# Under cell number change, O=C(CCCn1c(=S)[nH]c2ccccc2c1=O)NCc1ccco1 shows -11.4%
# Under AC50 [2], O=C(NC1CCN(Cc2ccccc2)CC1)c1cccc(OC(F)F)c1 shows 0.82 µM [rising, full curve, poor fit]
